Measurements from the RNAGym collection of RNA variant scans (doi:10.1126/science.aae0568).
Variants at the floor of the assay are shown more often than the library holds them.

B1: tRNA (parent)
chain: GUUCCGUUGGCGUAAUGGUAACGCGUCUCCCUCCUAAGGAGAAGACUGCGGGUUCGAGUCCCGUACGGAACG

Variants of: B1
Assay: yeast fitness relative to wild type (ratio to wild type); higher = fitter; tRNA-Arg(CCU), competitive growth, 37 C, YPD
In short: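 Genotype frequency changes were the basis for Darwinian fitness relative to wild type. The frequencies came from 100-nucleotide paired-end sequencing of gene amplicons from the start population and each end population of pooled yeast strains with tRNA-Arg(CCU) gene variants at the native locus. Competition ran in YPD at 37°C for 24 hours in six replicates, genotypes needed ≥ 100 starting reads, and estimates < 0.5 were set to 0.5.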

Yeast fitness, 0.662:
C11G G41C

Yeast fitness, 0.696:
U2A A40U A70U

Yeast fitness, 0.687:
A21U G68C

Yeast fitness, 0.573:
C22U C34G A36U A65C

Yeast fitness, 0.506:
G10A U13G C27U C46G A69C

Yeast fitness, 0.769:
C4A C11G

Yeast fitness, 0.918:
G9A G58A

Yeast fitness, 0.888:
A15C A36G

Yeast fitness, 0.536:
A21C C34U

Yeast fitness, 0.59:
G9A G50A C55U

Yeast fitness, 0.894:
A14G U59A

Yeast fitness, 0.596:
U19C C31G A65U

Yeast fitness, 0.635:
C49G U59G

Yeast fitness, 0.54:
U19G C55G A69U

Yeast fitness, 0.847:
U7G G48A

Yeast fitness, ≤ 0.5:
U2G U7G U26A C49U A65U
C5A C55A A69C A70U
U16A G23C A36G G51C C55G
U16A U32C C34U
G10A C22U C30U G56C
C30G C46U A65C
U3A C22U C24A C27U G52C
C4A G39C A45C
C11G U54C C62U
C5U C27G C33G A42C U64A
C24G A36G G68A
U8A A14C G18C A20C G25C U28A C60A A65U
C24A U26A C55A C66U
C4G G10A U13A U26G C27G C29U C33U U53C C61U
A21U C31U G52A C55A
C5U G44C C49G G52C U53A
G10A C33U C49A
C4A U28G U47G
U7G C33A A36U A57G
U16G G23A C34G G68U
G6A C30U A40G C55U U64C
C11U U13A G50C
A42G G50C A57U
U7A G9C C29U C30U C34G U53G
A21U C33A C34U A36C G48C
C29G U53A G68C
U8G U19G A20C C24G A36U C46U
C5G G41A G50C C55U A57G A70U
A14C A20C G67A
C11G C49G A57U
C4G G9A A21C C22A U26C
C5A C24G U26A C29G U32A U54C
G51A G56A G63C
C4G A14C A42G G67A
C30G C33G C62U A70C
U3A C27G C31U C33U A42C A70C
C31U G56A G63C
A14U G52C G67A
U28G C30G A40C A42U G63C
C33A C34G G50A A70U
C5A A37G A40U
U3A G10C A36U A40C A57C
C11A G23C U32G C34A C66U
C24U C34G A36U C61U
C4A A36G A65U A70C
G18A C30U C55G
G6A C24G C31U A57C
C5G G9C C33A U35C C46U C49U G52C C61U C66U
G9C U28A C29A U35G A70C
A45C C55U A57C
C27G A40C C55G
U16A A21G C34U
G17C G41C G56A
G18A U32C A42U A43G A65C
U3C G9U G18A C46A C49G
C5U U35G G38U A45U A57C
G23U U28G A69U
G17A A20C G25A G56C A65C A70G
U8G U35A G41A C66U
U3C C5G A15C C27G
U2A C5G C22G G56A
U3C C5G U26G
G6A A15U C31G U53A C55U A57C C60G G67C
U47A G56A U59C C61G
G17C G18A A57C A70U
U13A G18C C27U
A14C C22U C34U G41A C60G A65G
U2C A21G C33G C46G
G38C A45C C46G G51C
U13A A14C C22A A36C
U7A C34A G56C G68C
U3C U16G U19A A43C U47C U59G
A14G A37U G68C
A14C C30U G39C
A42U A57U G67C
C11U C29U C49A
U7G A15C U19G C27U A37G U47C
C22U U32C G52A C55A A57G U59G
C11G U35C A69C
C5A C11G G41C C62G
A40U U47A U53C G58A A70C
A14G A45C G67C
G23A A57C C60A
A15U A43U C55A
G17A U28G C30G A40C A42U
U8C C33G G56C G67C
C5G G12A U32C A40C G51A
C5A G9C G38C G63C C66U
A37C A45U G67C G68A
C29G A40G C55U
G25C C46U A57U G67C
U7C A21C C34G U35G G44C G50C G63A
G6A A37G G41A G52A
C4U U32C A36G G44C
G10A C29A C34G A43C C60G C66U
U8C A42G C55U A65C
U3A C5U A15C A36U A40G C49G C66G
A14G C27U U47A G56A C62U
C11A C27A G50A C62U G63A
U2C C24G A42U G67A
U16A C22A C24G A69U
G9C C27A C33U A36C C55U
G23C U28G A42U
U3C C24U A36C
C11G G56C A57G C61G C66U A69G
U19A C22U U35C A40U G51C C66U A70G
A15G A45G G50C A69U
G6C G39C C49U G67C
C24G G25C A40C A42U U47A C61G G63A C66G
C5A G12A C22G C27G A36U A40C C66U
C11G C30G C31G U32A G58C G63A
G6C U8C C30G
A15U C30G C34U G63U
C22U C33A U64C
C4U C11A C29A U54A A57U
G17C G25C C29G A36U G39A C46U C55U
G23U G25C C49U C61U
U8G U26A G58A
C11G C24G C30U A43U C60G A65C
A15U A21C C24G C62G
G6C A14G C30G C66U
A15U C22G C31U A65C
G6A C24U C61G
G17C C29U A37C
U7C C30G G56C C61U A65C
C24U G39A A40C C61G
U26C G48C C60A
C30G C31A A36C A40G G50A
U3C A20U C61G A70G
U2A U3C C24G C33G C66U
G9A A40C G68A
U3C C11A A43C
C4U A20U U35A
G17A G18C G39C A65U
G9C G17C C62A
C34U A36U U53A
C5A C31A A37C C46U
G38A G67U A70U
U8C U16G C62G C66G A69C
C4U C27U G63U U64G
U3C A14U A37U
C5U U16G A43U G58A
C4A A37U A69C A70C
C4U A15C C29G C30G A43C

Yeast fitness, 0.625:
U35A A40U A57U

Yeast fitness, 0.747:
G23A A42G

Yeast fitness, 0.663:
A37G U59A

Yeast fitness, 0.826:
C30U C61U

Yeast fitness, 0.613:
C5U A14C G41C

Yeast fitness, 1.17:
C31U A42C

Yeast fitness, 0.709:
C27G G41A G67U

Yeast fitness, 0.503:
C22G A40U A43U
